# Experimental data reported in the supplement of paper PMC8728848.
# This is one part of the list.
# Assays:
# Assay in all cases: glycan array binding signal (z-score within array); higher = stronger binding
# Conditions in all cases: glycan notation: IUPAC condensed, linker removed
# [1] = molecular target: GlcNAc(b1-2)[GlcNAc(b1-4)]Man(a1-3)[GlcNAc(b1-2)Man(a1-6)]Man(b1-4)GlcNAc(b1-4)GlcNAc
# Summary of the method: (§1)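 The Consortium for Functional Glycomics database supplied 3228 glycan arrays, of which those lacking an available protein sequence were dropped. The binding signal, a within-array Z-score, was averaged across arrays of the same protein sequence and across linkers. Negative scores can be read as non-binding.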
# [2] = molecular target: GlcNAc(b1-2)[GlcNAc(b1-4)]Man(a1-3)[GlcNAc(b1-4)][GlcNAc(b1-2)Man(a1-6)]Man(b1-4)GlcNAc(b1-4)GlcNAc
# Summary of the method: as §1
# [3] = molecular target: GlcNAc(b1-2)[GlcNAc(b1-4)]Man(a1-3)[GlcNAc(b1-4)][GlcNAc(b1-2)[GlcNAc(b1-6)]Man(a1-6)]Man(b1-4)GlcNAc(b1-4)GlcNAc
# Summary of the method: as §1
# [4] = molecular target: GlcNAc(b1-2)[GlcNAc(b1-4)]Man(a1-3)[GlcNAc(b1-4)][GlcNAc(b1-2)[GlcNAc(b1-6)]Man(a1-6)]Man(b1-4)GlcNAc(b1-4)[Fuc(a1-6)]GlcNAc
# Summary of the method: as §1
# [5] = molecular target: GlcNAc(b1-2)[GlcNAc(b1-6)]Man(a1-6)[GlcNAc(b1-2)Man(a1-3)]Man(b1-4)GlcNAc(b1-4)GlcNAc
# Summary of the method: as §1
# [6] = molecular target: GlcNAc(b1-2)[GlcNAc(b1-6)]Man(a1-6)[GlcNAc(b1-2)Man(a1-3)]Man(b1-4)GlcNAc(b1-4)[Fuc(a1-6)]GlcNAc
# Summary of the method: as §1
# [7] = molecular target: GlcNAc(b1-2)[GlcNAc(b1-6)]Man(a1-6)[GlcNAc(b1-2)Man(a1-3)][GlcNAc(b1-4)]Man(b1-4)GlcNAc(b1-4)GlcNAc
# Summary of the method: as §1
# GlcNAc(b1-3)Gal = molecular target: GlcNAc(b1-3)Gal
# Summary of the method: as §1
# [8] = molecular target: GlcNAc(b1-3)Gal(b1-3)GalNAc
# Summary of the method: as §1
# GlcNAc(b1-3)Gal(b1-4)Glc = molecular target: GlcNAc(b1-3)Gal(b1-4)Glc
# Summary of the method: as §1
# [9] = molecular target: GlcNAc(b1-3)Gal(b1-4)GlcNAc
# Summary of the method: as §1
# [10] = molecular target: GlcNAc(b1-3)Gal(b1-4)GlcNAc(b1-3)Gal(b1-4)GlcNAc
# Summary of the method: as §1
# GlcNAc(b1-3)GalNAc = molecular target: GlcNAc(b1-3)GalNAc
# Summary of the method: as §1
# GlcNAc(b1-3)Man = molecular target: GlcNAc(b1-3)Man
# Summary of the method: as §1
# [11] = molecular target: GlcNAc(b1-3)[GlcNAc(b1-4)][GlcNAc(b1-6)]GlcNAc
# Summary of the method: as §1
# [12] = molecular target: GlcNAc(b1-3)[GlcNAc(b1-6)]Gal(b1-4)GlcNAc
# Summary of the method: as §1
# [13] = molecular target: GlcNAc(b1-3)[GlcNAc(b1-6)]GalNAc
# Summary of the method: as §1
# [14] = molecular target: GlcNAc(b1-4)Gal(b1-4)GlcNAc
# Summary of the method: as §1
# GlcNAc(b1-4)GlcNAc = molecular target: GlcNAc(b1-4)GlcNAc
# Summary of the method: as §1
# [15] = molecular target: GlcNAc(b1-4)GlcNAc(b1-4)GlcNAc
# Summary of the method: as §1
# [16] = molecular target: GlcNAc(b1-4)GlcNAc(b1-4)GlcNAc(b1-4)GlcNAc(b1-4)GlcNAc
# Summary of the method: as §1
# [17] = molecular target: GlcNAc(b1-4)GlcNAc(b1-4)GlcNAc(b1-4)GlcNAc(b1-4)GlcNAc(b1-4)GlcNAc
# Summary of the method: as §1
# [18] = molecular target: GlcNAc(b1-4)[GlcNAc(b1-6)]GalNAc
# Summary of the method: as §1
# [19] = molecular target: GlcNAc(b1-6)Gal(b1-4)GlcNAc
# Summary of the method: as §1
# GlcNAc(b1-6)GalNAc = molecular target: GlcNAc(b1-6)GalNAc
# Summary of the method: as §1
# GlcNAc3Prop(b1-4)GlcNAc = molecular target: GlcNAc3Prop(b1-4)GlcNAc
# Summary of the method: as §1
# [20] = molecular target: GlcNAc6S(b1-3)Gal(b1-4)GlcNAc
# Summary of the method: as §1
# Kdn(a2-3)Gal(b1-3)GalNAc = molecular target: Kdn(a2-3)Gal(b1-3)GalNAc
# Summary of the method: as §1
# Kdn(a2-3)Gal(b1-3)GlcNAc = molecular target: Kdn(a2-3)Gal(b1-3)GlcNAc
# Summary of the method: as §1
# Kdn(a2-3)Gal(b1-4)Glc = molecular target: Kdn(a2-3)Gal(b1-4)Glc
# Summary of the method: as §1
# Kdn(a2-3)Gal(b1-4)GlcNAc = molecular target: Kdn(a2-3)Gal(b1-4)GlcNAc
# Summary of the method: as §1
# [21] = molecular target: Kdn(a2-3)Gal(b1-4)[Fuc(a1-3)]GlcNAc
# Summary of the method: as §1
# Kdn(a2-6)Gal(b1-4)GlcNAc = molecular target: Kdn(a2-6)Gal(b1-4)GlcNAc
# Summary of the method: as §1
# [22] = molecular target: Man(a1-2)Man(a1-2)Man(a1-3)Man
# Summary of the method: as §1
# [23] = molecular target: Man(a1-2)Man(a1-2)Man(a1-6)[Man(a1-3)]Man
# Summary of the method: as §1
# Man(a1-2)Man(a1-3)Man = molecular target: Man(a1-2)Man(a1-3)Man
# Summary of the method: as §1
# [24] = molecular target: Man(a1-2)Man(a1-3)[Man(a1-2)Man(a1-6)]Man
# Summary of the method: as §1
# [25] = molecular target: Man(a1-2)Man(a1-3)[Man(a1-2)Man(a1-6)]Man(a1-6)[Man(a1-2)Man(a1-2)Man(a1-3)]Man
# Summary of the method: as §1
binder,measurement,setting,value
Intelectin-1a (Mus musculus) (protein) AEWSHPQFEKAEENLDTNRWGNSFFSSLPRSCKEIKQEHTKAQDGLYFLRTKNGVIYQTFCDMTTAGGGWTLVASVHENNMRGKCTVGDRWSSQQGNRADYPEGDGNWANYNTFGSAEAATSDDYKNPGYFDIQAENLGIWHVPNKSPLHNWRKSSLLRYRTFTGFLQHLGHNLFGLYKKYPVKYGEGKCWTDNGPALPVVYDFGDARKTASYYSPSGQREFTAGYVQFRVFNNERAASALCAGVRVTGCNTEHHCIGGGGFFPEGNPVQCGDFASFDWDGYGTHNGYSSSRKITEAAVLLFYR,glycan array binding signal (z-score),[1],-1.01
same,glycan array binding signal (z-score),[2],-0.176
same,glycan array binding signal (z-score),[3],-0.488
same,glycan array binding signal (z-score),[4],-0.031
same,glycan array binding signal (z-score),[5],-0.259
same,glycan array binding signal (z-score),[6],0.249
same,glycan array binding signal (z-score),[7],0.239
same,glycan array binding signal (z-score),GlcNAc(b1-3)Gal,-1.15
same,glycan array binding signal (z-score),[8],-0.724
same,glycan array binding signal (z-score),GlcNAc(b1-3)Gal(b1-4)Glc,-0.427
same,glycan array binding signal (z-score),[9],-0.295
same,glycan array binding signal (z-score),[10],-0.263
same,glycan array binding signal (z-score),GlcNAc(b1-3)GalNAc,-0.491
same,glycan array binding signal (z-score),GlcNAc(b1-3)Man,-0.353
same,glycan array binding signal (z-score),[11],-1.44
same,glycan array binding signal (z-score),[12],-0.779
same,glycan array binding signal (z-score),[13],-1
same,glycan array binding signal (z-score),[14],-0.454
same,glycan array binding signal (z-score),GlcNAc(b1-4)GlcNAc,0.113
same,glycan array binding signal (z-score),[15],-1.03
same,glycan array binding signal (z-score),[16],-0.617
same,glycan array binding signal (z-score),[17],-0.826
same,glycan array binding signal (z-score),[18],1.47
same,glycan array binding signal (z-score),[19],-0.534
same,glycan array binding signal (z-score),GlcNAc(b1-6)GalNAc,-0.351
same,glycan array binding signal (z-score),GlcNAc3Prop(b1-4)GlcNAc,-0.731
same,glycan array binding signal (z-score),[20],-0.273
same,glycan array binding signal (z-score),Kdn(a2-3)Gal(b1-3)GalNAc,-1.01
same,glycan array binding signal (z-score),Kdn(a2-3)Gal(b1-3)GlcNAc,-0.959
same,glycan array binding signal (z-score),Kdn(a2-3)Gal(b1-4)Glc,0.266
same,glycan array binding signal (z-score),Kdn(a2-3)Gal(b1-4)GlcNAc,0.581
same,glycan array binding signal (z-score),[21],-0.718
same,glycan array binding signal (z-score),Kdn(a2-6)Gal(b1-4)GlcNAc,-1.2
same,glycan array binding signal (z-score),[22],-0.748
same,glycan array binding signal (z-score),[23],1.86
same,glycan array binding signal (z-score),Man(a1-2)Man(a1-3)Man,-0.431
same,glycan array binding signal (z-score),[24],-0.995
same,glycan array binding signal (z-score),[25],-0.621
